# Results from PubChem BioAssay (Tox21).
# Chains of the proteins cited; added tags and fusions are not shown. Lines headed by an entry give the natural chain unless they say otherwise; changes in a name come on top.
# UniProt P11473: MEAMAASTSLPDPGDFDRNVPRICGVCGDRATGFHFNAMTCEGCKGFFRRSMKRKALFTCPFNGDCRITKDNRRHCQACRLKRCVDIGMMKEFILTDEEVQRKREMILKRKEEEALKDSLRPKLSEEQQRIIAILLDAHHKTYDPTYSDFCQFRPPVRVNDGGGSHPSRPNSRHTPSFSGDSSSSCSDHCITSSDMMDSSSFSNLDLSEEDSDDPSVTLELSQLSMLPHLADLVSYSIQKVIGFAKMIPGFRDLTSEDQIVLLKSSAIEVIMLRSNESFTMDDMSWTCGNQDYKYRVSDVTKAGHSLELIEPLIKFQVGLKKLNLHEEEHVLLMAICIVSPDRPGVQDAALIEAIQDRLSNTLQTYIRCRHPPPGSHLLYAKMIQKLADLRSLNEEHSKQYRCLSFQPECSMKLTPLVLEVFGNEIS
# UniProt Q96RI1: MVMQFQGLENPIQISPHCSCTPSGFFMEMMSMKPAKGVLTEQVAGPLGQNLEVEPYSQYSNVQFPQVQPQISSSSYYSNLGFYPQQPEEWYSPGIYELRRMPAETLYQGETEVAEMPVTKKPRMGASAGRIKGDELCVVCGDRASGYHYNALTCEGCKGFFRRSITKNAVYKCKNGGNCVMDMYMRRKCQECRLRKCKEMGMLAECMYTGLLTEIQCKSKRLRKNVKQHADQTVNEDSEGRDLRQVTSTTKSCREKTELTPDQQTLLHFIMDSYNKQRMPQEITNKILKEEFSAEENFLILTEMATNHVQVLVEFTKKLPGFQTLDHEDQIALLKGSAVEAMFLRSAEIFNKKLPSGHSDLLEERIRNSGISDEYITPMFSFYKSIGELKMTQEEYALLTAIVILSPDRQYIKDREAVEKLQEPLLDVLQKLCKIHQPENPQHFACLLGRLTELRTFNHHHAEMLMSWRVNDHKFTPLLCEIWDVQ
# “And” between values parts separate entries of the source, which are not always exact repeats. Equal entries are not always repeated. The inconclusive results got no clear call from the source; some entries with a clear call stand among them for comparison. For some assays here: Potencies of inconclusive entries are doubtful fits and often do not repeat. More than one record can exist for a structure, and the calls need not agree. The source made the active and inactive calls. Unless noted, calls follow the shape of the dose curve; as a rule, active = well fitted cell-killing curve with a large enough effect in the repeat runs; inconclusive = weak or mixed curves, or effect the other way; inactive = no such curve, though single readings can be large or run the other way.
# Assays:
# [1] = target: Vitamin D3 receptor (Homo sapiens) (UniProt P11473); assay: qHTS assay to identify small molecule antagonists of the vitamin D receptor (VDR) signaling pathway (AID 743223; active = well fitted inhibition curve with a large enough effect in the signal ratio in the repeat runs, not every such curve was filed as active; inconclusive = weak or mixed curves, or effect the other way; inactive = no such curve, though single readings can be large or run the other way; the % refers to the signal ratio; also: potency is read from the fitted curve at half-maximal effect; as to activity change, negative = inhibition: % is scaled to controls: 0 for no effect and ±100 for the full control effect); conditions: VDR-UAS-bla HEK293T, beta-lactamase FRET ratio, 16 h
# In short: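 Cells carrying a VDR-driven beta-lactamase reporter (VDR-bla) were co-treated with compound and 3 nM final 1alpha,25-dihydroxyvitamin D3 for 16 h at 37C; reporter activity was measured as FRET substrate fluorescence after 2 h at room temperature.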
# [2] = qHTS assay to identify small molecule agonists of the NFkB signaling pathway (AID 1159509; active = well fitted curve in the direction sought with a large enough effect in the signal ratio in the repeat runs, not every such curve was filed as active; inconclusive = weak or mixed curves, or a change in a side signal; inactive = no such curve, though single readings can be large or run the other way; the % refers to the signal ratio; also: potency is read from the fitted curve at half-maximal effect; as to activation: % is scaled to controls: 0 for no effect and ±100 for the full control effect); conditions: NFkB-bla ME-180 cells, beta-lactamase FRET ratio, 5 h; activation: at 61 µM (top of the series) unless noted
# In short: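 NFkB-bla ME-180 cells carry a beta-lactamase reporter under an NF-kB response element. They were plated overnight, then exposed to compounds for 5 h at 37 C. Read-out is LiveBLAzer FRET after 1.5 hr at room temperature (405 nm excitation; 460/530 nm emission).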
# [3] = qHTS assay to identify small molecule agonists of the NFkB signaling pathway - cell viability counter screen (AID 1159515; calls by dose curve; also: nearly all actives have a fitted effect of over 55% in size; also: potency is read from the fitted curve at half-maximal effect)
# In short: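 5 hr compound treatment of NFkB-bla ME-180 cells (2,000/well, seeded overnight beforehand), followed by reporter substrate for 1.5 hr. CellTiter-Glo added afterward; luminescence after 30 min RT.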
# [4] = qHTS assay to identify small molecule agonists of the endoplasmic reticulum stress response signaling pathway (AID 1159516; active = well fitted activation curve with a large enough effect in the signal ratio in the repeat runs, not every such curve was filed as active; inconclusive = weak or mixed curves, or effect the other way; the % refers to the signal ratio; also: potency is read from the fitted curve at half-maximal effect; as to activation: % is scaled to controls: 0 for no effect and ±100 for the full control effect); conditions: ESRE-bla HeLa, ER stress beta-lactamase reporter, 5 h; activation: at 61 µM (top of the series) unless noted
# In short: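 Reporter HeLa cells (ESRE-beta-lactamase) underwent 5 hr compound incubation at 37 C and 5% CO2 in quantitative HTS format. Detection followed 2 hr of FRET substrate loading at room temperature.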
# [5] = qHTS assay to identify small molecule agonists of the farnesoid-X-receptor (FXR) signaling pathway - cell viability counter screen (AID 743218); conditions: FXR-bla HEK293T viability, CellTiter-Glo luminescence, 16 h; viability change, negative = cytotoxic: at 62.6 µM (top of the series) unless noted; also: potency is read from the fitted curve at half-maximal effect; nearly all actives have a fitted effect of over 45% in size
# In short: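 After 16 h at 37 C with test compounds, FXR-bla HEK 293T cells were given LiveBLAzer B/G substrate for 2 h at RT and then CellTiter-Glo; luminescence was taken after 30 min.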
# [6] = qHTS assay to identify small molecule agonists of the vitamin D receptor (VDR) signaling pathway - cell viability counter screen (AID 743224); also: nearly all actives have a fitted effect of over 50% in size; also: potency is read from the fitted curve at half-maximal effect
# In short: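 Here cell health was gauged by luminescent ATP detection (CellTiter-Glo, 30 min RT) in VDR-bla cells that had been incubated with test compounds for 16 h at 37C and 5% CO2.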
# [7] = qHTS assay to identify small molecule antagonists of the farnesoid-X-receptor (FXR) signaling pathway - cell viability counter screen (AID 743221; active = well fitted cell-killing curve with a large enough effect in the repeat runs, not every such curve was filed as active; inconclusive = weak or mixed curves, or effect the other way; inactive = no such curve, though single readings can be large or run the other way; also: potency is read from the fitted curve at half-maximal effect; nearly all actives have a fitted effect of over 50% in size); conditions: FXR-bla HEK293T viability, CellTiter-Glo luminescence, 16 h; activity change, negative = cytotoxicity: at 62.6 µM (top of the series) unless noted
# In short: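 Multiplexed counter screen: viability of FXR-bla HEK 293T cells under agonist stimulation by chenodeoxycholic acid (50 uM, final) and test compound for 16 h at 37 C, measured by CellTiter-Glo luminescence in the reporter wells.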
# [8] = target: Vitamin D3 receptor (Homo sapiens) (UniProt P11473); assay: qHTS assay to identify small molecule agonists of the vitamin D receptor (VDR) signaling pathway (AID 743222; calls by dose curve; also: potency is read from the fitted curve at half-maximal effect); conditions: HEK293T VDR-UAS-bla, beta-lactamase FRET ratio, 16 h; activation: at 63.5 µM (top of the series) unless noted
# In short: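 VDR-bla cells were seeded, left 4 h, treated with compounds in DMSO for 16 h, incubated 2 h at RT with B/G FRET substrate, and read for fluorescence.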
# [9] = qHTS assay to identify small molecule antagonists of the vitamin D receptor (VDR) signaling pathway - cell viability counter screen (AID 743225); conditions: VDR-bla HEK293T viability, CellTiter-Glo luminescence, 16 h; viability change, negative = cytotoxic: at 61 µM (top of the series); also: nearly all actives have a fitted effect of over 50% in size; also: potency is read from the fitted curve at half-maximal effect
# In short: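 HEK293T VDR-bla; cpd + 1a,25-(OH)2D3 3 nM final, 16 h 37C/5% CO2; B/G FRET substrate 2 h RT; then CellTiter-Glo 30 min RT, luminescence.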
# [10] = target: Bile acid receptor (Homo sapiens) (UniProt Q96RI1); assay: qHTS assay to identify small molecule agonists of the farnesoid-X-receptor (FXR) signaling pathway (AID 743220; active = well fitted activation curve with a large enough effect in the signal ratio in the repeat runs, not every such curve was filed as active; inconclusive = weak or mixed curves, or effect the other way; the % refers to the signal ratio; also: % is scaled to controls: 0 for no effect and ±100 for the full control effect); conditions: HEK293T FXR-UAS-bla, beta-lactamase FRET ratio, 16 h; activation: at 62.6 µM (top of the series) unless noted
# In short: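 Beta-lactamase reporter under UAS control in GeneBLAzer FXR HEK 293T cells (5000/well) measured with LiveBLAzer FRET substrate after 2 h at room temperature. Compound exposure lasted 16 h at 37C.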
# [11] = activity change, negative = inhibition: at 61 µM (top of the series) unless noted
smiles,measurement,setting,value
O=C/C=C/c1ccccc1,"activity change, negative = inhibition",[1]; [11],inconclusive: 9.82%
same,"activity change, negative = inhibition",[1]; at 61 µM (top of the series),inactive: 14.3%
same,"activity change, negative = inhibition",[1]; at 78.8 µM (top of the series),inactive: -7.35%
same,Potency,[2],inactive
same,Potency,[3],"inconclusive: 0.0012 µM [rising, full curve, poor fit]"
COCCC#N,Potency,[2],"inconclusive: 3.37 µM [rising, partial curve, poor fit]"
same,Potency,[4],inactive
CCN(N=O)C(N)=O,Potency,[5],"inconclusive: 12.1 µM [rising, full curve]"
same,Potency,[2],inactive
same,Potency,[4],"inconclusive: 0.706 µM [rising, partial curve, poor fit]"
CCN(C(C)=O)c1cccc(-c2ccnc3c(C#N)cnn23)c1,Potency,[2],"inconclusive: 2.13 µM [rising, full curve, poor fit]"
same,Potency,[4],inactive
Clc1ccc(C(Cl)(Cl)Cl)c(Cl)c1,Potency,[6],inactive
same,Potency,[2],"inconclusive: 62.1 µM [falling, single point]"
same,Potency,[3],"inconclusive: 55.3 µM [cytotoxic, single point]"
CCOP(=S)(OCC)SC(CCl)N1C(=O)c2ccccc2C1=O (configuration not stated),Potency,[5],"inconclusive: 27.5 µM [rising, partial curve, poor fit]"
same,"activity change, negative = inhibition",[1]; [11],inconclusive: 1.33%
same,Potency,[2],"inconclusive: 61.6 µM [falling, single point]"
same,Potency,[4],inactive
NNC(=O)c1ccccc1,Potency,[6],"inconclusive: 17.9 µM [rising, partial curve, poor fit]"
same,activation,[2],inconclusive: -0.624% [at 78.8 µM]
same,Potency,[3],"inconclusive: 63.4 µM [rising, partial curve, poor fit]"
CC(C)N(C(=O)SC/C(Cl)=C/Cl)C(C)C,Potency,[1]; [11],inactive
same,Potency,[2],"inconclusive: 39.2 µM [falling, partial curve, poor fit]"
same,Potency,[3],inactive
N#CC(C#N)=NNc1cccc(Cl)c1,Potency,[5],active: 5.49 µM
same,Potency,[7],active: 6.92 µM
same,Potency,[8],"inconclusive: 0.977 µM [inhibitor, partial curve, poor fit]"
same,Potency,[9],active: 8.71 µM
same,Potency,[2],"inconclusive: 7.76 µM [falling, full curve]"
same,Potency,[4],"inconclusive: 11 µM [cytotoxic, full curve]"
CCOP(=O)(OCC)Oc1nc(Cl)c(Cl)cc1Cl,Potency,[5],"inconclusive: 0.244 µM [rising, full curve, poor fit]"
same,Potency,[7],"inconclusive: 43.4 µM [falling, partial curve]"
same,Potency,[1]; [11],inconclusive: 48.7 µM
same,Potency,[6],active: 4.34 µM
same,Potency,[9],"inconclusive: 15.4 µM [cytotoxic, full curve, poor fit]"
same,Potency,[2],"inconclusive: 27.4 µM [falling, partial curve]"
same,Potency,[4],"inconclusive: 12.2 µM [falling, partial curve]"
C=CC(=O)OCC(CC)(COC(=O)C=C)COC(=O)C=C,Potency,[5],active: 13.8 µM
same,Potency,[8],"inconclusive: 30.9 µM [falling, full curve]"
same,Potency,[1]; [11],inconclusive: 15.9 µM [partial curve] and active: 6.92 µM
same,Potency,[9],active: 20 µM and active: 17.4 µM
same,Potency,[2],"inconclusive: 14.2 µM [falling, full curve] and inconclusive: 19.5 µM [falling, full curve]"
same,activation,[4],inconclusive: 15.7% [at 78.8 µM]
CCOc1cc(C(C)(C)C)ccc1C1COC(c2c(F)cccc2F)=N1 (configuration not stated),Potency,[5],active: 33.4 µM
same,activation,[10],inconclusive: -0.0619%
same,Potency,[7],active: 29.7 µM
same,Potency,[8],"inconclusive: 29.7 µM [rising, partial curve]"
same,Potency,[1]; [11],inconclusive: 29.7 µM
same,Potency,[6],active: 23.6 µM
same,Potency,[9],"inconclusive: 33.4 µM [cytotoxic, single point]"
same,Potency,[2],"inconclusive: 18.8 µM [falling, partial curve, poor fit]"
same,Potency,[4],"inconclusive: 11.8 µM [falling, partial curve, poor fit]"
O=[N+]([O-])c1ccc(F)c([N+](=O)[O-])c1,Potency,[5],active: 2.21 µM
same,Potency,[7],"inconclusive: 12.4 µM [falling, partial curve, poor fit]"
same,Potency,[1]; [11],inactive
same,Potency,[9],inactive
same,Potency,[2],inactive
same,Potency,[4],"inconclusive: 44.1 µM [cytotoxic, partial curve]"
C[C@H]1CCCC(=O)CCC/C=C/c2cc(O)cc(O)c2C(=O)O1,Potency,[9],"inconclusive: 8.03 µM [rising, single point]"
same,Potency,[2],inconclusive: 53 µM
same,Potency,[3],"inconclusive: 53 µM [cytotoxic, single point]"

# Part of the list above in a different format:
smiles	measurement	setting	value
O=C/C=C/c1ccccc1	activity change, negative = inhibition	[1]; at 78.8 µM (top of the series)	inactive: -7.35%
CCN(N=O)C(N)=O	Potency	[5]	inconclusive: 12.1 µM [rising, full curve]
N#CC(C#N)=NNc1cccc(Cl)c1	Potency	[8]	inconclusive: 0.977 µM [inhibitor, partial curve, poor fit]
O=[N+]([O-])c1ccc(F)c([N+](=O)[O-])c1	Potency	[2]	inactive
